No constants are given. Whether binding was seen depends on the method and setting.
Target: LhcB2-GFP (~55 kDa) (Arabidopsis thaliana) (UniProt Q9S7J7)
Experiment: native gel or EMSA

binding: no binding
Substance: LhcB2-GFP (~55 kDa) (from UniProt Q9S7J7 38-265)

Reference: paper doi:10.1101/2022.12.01.518768
